Data as given in PubChem BioAssay AID493246 (Drosophila RNAi Screening Center, 2011).
In all, the deposit lists about 21,000 reagents; below is a random part of those with a known target gene and a result. In the full data, 429 (2%) are marked active. 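Values are raw and not normalised between plates; calls rest on per-plate z-scores that were not deposited.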 A plus sign joins genes that one reagent is predicted to hit. Not stated in the record: the amount of reagent, the time to read-out.

Aim: 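Identify essential fly genes by loss of cell viability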 (primary screen)
System: Drosophila Kc and S2R+ cells
Reagents: long dsRNA against Drosophila genes
Measured: 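Raw, unnormalised count of remaining cells in each well; per-plate z-scores of cell number underlie the calls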
Reading the numbers: Kc cell number and S2R+ cell number: higher = more cells remaining
Rule for the call: 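Active when the per-plate z-score of cell number is 3 or more in the direction of fewer cells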

Gene | amplicon | Kc cell number, rep 1 | Kc cell number, rep 2 | S2R+ cell number, rep 1 | S2R+ cell number, rep 2 | outcome
CG6729 | DRSC02984 | 1.59e6 | 1.56e6 | 1.14e6 | 1.16e6 | inactive
ArgRS-m (Arginyl-tRNA synthetase, mitochondrial) | DRSC14186 | 1.39e6 | 1.47e6 | 1.02e6 | 1.22e6 | inactive
CG11828 | DRSC14394 | 1.52e6 | 1.59e6 | 1.05e6 | 1.19e6 | inactive
flip (flippy) | DRSC12326 | 1.32e6 | 1.37e6 | 1.28e6 | 1.28e6 | inactive
Chchd3 (Coiled-coil-helix-coiled-coil-helix domain containing 3) | DRSC16981 | 1.39e6 | 1.42e6 | 7.22e5 | 8.28e5 | inactive
CG15253 | DRSC01871 | 1.80e6 | 1.99e6 | 1.25e6 | 1.46e6 | inactive
ETHR | DRSC15915 | 1.36e6 | 1.40e6 | 1.00e6 | 1.11e6 | inactive
CG13877 + pyx | DRSC08347 | 1.43e6 | 1.19e6 | 9.87e5 | 1.24e6 | inactive
COX7AL2 (Cytochrome c oxidase subunit 7A-like 2) | DRSC00099 | 1.57e6 | 1.56e6 | 9.93e5 | 1.16e6 | inactive
eIF5 (eukaryotic translation initiation factor 5) | DRSC20165 | 5.43e5 | – | 8.02e5 | – | inactive
gcl (germ cell-less) | DRSC07623 | 1.55e6 | 1.56e6 | 1.14e6 | 1.16e6 | inactive
Cdk7 (Cyclin-dependent kinase 7) | DRSC18451 | 1.66e6 | 1.69e6 | 1.12e6 | 1.22e6 | inactive
CG9519 | DRSC20195 | 5.59e5 | – | 8.87e5 | – | inactive
pnut (peanut) | DRSC07666 | 1.24e6 | 1.34e6 | 9.83e5 | 1.08e6 | inactive
ND2 (retired record) | DRSC21274 | 1.61e6 | 1.63e6 | 1.12e6 | 1.28e6 | inactive
Ttd14 (TRPL translocation defect 14) | DRSC06632 | 1.29e6 | 1.30e6 | 1.05e6 | 1.11e6 | inactive
Ttd14 (TRPL translocation defect 14) | DRSC06942 | 1.26e6 | 1.30e6 | 8.75e5 | 9.94e5 | inactive
CG15534 | DRSC15070 | 1.48e6 | 1.64e6 | 9.24e5 | 1.05e6 | inactive
CG2059 | DRSC18203 | 1.53e6 | 1.55e6 | 1.08e6 | 1.20e6 | inactive
CG12945 | DRSC14573 | 1.46e6 | 1.54e6 | 1.35e6 | 1.46e6 | inactive
CG6901 | DRSC16129 | 1.41e6 | 1.54e6 | 1.16e6 | 1.30e6 | inactive
twy (twitchy) | DRSC10562 | 1.26e6 | 1.41e6 | 1.27e6 | 1.41e6 | inactive
hfp (half pint) | DRSC08731 | 9.23e5 | 9.81e5 | 7.79e5 | 1.01e6 | inactive
hfp (half pint) | DRSC08732 | 1.47e6 | 1.24e6 | 9.42e5 | 1.19e6 | inactive
b (black) | DRSC03487 | 1.83e6 | 1.89e6 | 1.43e6 | 1.56e6 | inactive
tweek | DRSC02433 | 1.52e6 | 1.61e6 | 1.20e6 | 1.34e6 | inactive
tweek | DRSC02434 | 1.43e6 | 1.52e6 | 1.19e6 | 1.34e6 | inactive
tweek | DRSC02785 | 1.21e6 | 1.35e6 | 1.19e6 | 1.19e6 | inactive
CG7768 | DRSC10914 | 1.45e6 | 1.50e6 | 1.24e6 | 1.27e6 | inactive
CG18335 | DRSC06723 | 1.54e6 | 1.53e6 | 1.23e6 | 1.36e6 | inactive
CG13919 | DRSC08388 | 1.49e6 | 1.37e6 | 8.55e5 | 1.04e6 | inactive
CG6791 | DRSC16118 | 1.76e6 | 1.82e6 | 1.21e6 | 1.31e6 | inactive
CG9945 | DRSC07347 | 1.61e6 | 1.46e6 | 9.88e5 | 1.21e6 | inactive
CG13579 | DRSC04215 | 1.60e6 | 1.69e6 | 1.36e6 | 1.49e6 | inactive
Dab (Disabled) | DRSC11140 | 1.41e6 | 1.56e6 | 1.05e6 | 1.11e6 | inactive
CG18301 | DRSC02662 | 1.61e6 | 1.69e6 | 1.32e6 | 1.54e6 | inactive
CG1387 | DRSC17904 | 5.44e5 | – | 8.66e5 | – | inactive
dare (defective in the avoidance of repellents) | DRSC07602 | 1.26e6 | 1.36e6 | 1.10e6 | 1.06e6 | inactive
CG31140 | DRSC13649 | 1.32e6 | 1.49e6 | 1.09e6 | 1.21e6 | inactive
CG31140 | DRSC14603 | 1.49e6 | 1.53e6 | 1.20e6 | 1.26e6 | inactive
CG31140 | DRSC15904 | 1.64e6 | 1.55e6 | 1.02e6 | 1.14e6 | inactive
CG34430 | DRSC06499 | 1.52e6 | 1.61e6 | 1.22e6 | 1.35e6 | inactive
CG12259 | DRSC14486 | 1.44e6 | 1.49e6 | 9.85e5 | 1.08e6 | inactive
Tctp (Translationally controlled tumor protein) | DRSC15649 | 1.67e6 | 1.69e6 | 1.14e6 | 1.24e6 | inactive
CG18747 | DRSC15384 | 1.34e6 | 1.48e6 | 1.33e6 | 1.47e6 | inactive
5-HT2B (5-hydroxytryptamine (serotonin) receptor 2B) | DRSC16360 | 1.44e6 | 1.57e6 | 1.28e6 | 1.43e6 | inactive
5-HT2B (5-hydroxytryptamine (serotonin) receptor 2B) | DRSC16362 | 1.54e6 | 1.70e6 | 1.31e6 | 1.45e6 | inactive
CG6356 | DRSC16026 | 1.48e6 | 1.46e6 | 9.79e5 | 1.07e6 | inactive
CG14826 | DRSC10197 | 1.59e6 | 1.53e6 | 1.21e6 | 1.17e6 | inactive
CG13071 | DRSC09954 | 1.29e6 | 1.35e6 | 1.33e6 | 1.46e6 | inactive
CG7582 | DRSC16261 | 1.69e6 | 1.73e6 | 1.02e6 | 1.12e6 | inactive
CG3587 | DRSC18541 | 1.65e6 | 1.88e6 | 1.10e6 | 1.28e6 | inactive
CG13791 (retired record) | DRSC02295 | 1.68e6 | 1.58e6 | 1.16e6 | 1.40e6 | inactive
Tmtc1 (Transmembrane O-mannosyltransferase targeting cadherins 1) | DRSC00147 | 1.49e6 | 1.52e6 | 9.96e5 | 1.10e6 | inactive
Tmtc1 (Transmembrane O-mannosyltransferase targeting cadherins 1) | DRSC00151 | 1.47e6 | 1.51e6 | 1.03e6 | 1.16e6 | inactive
Tmtc1 (Transmembrane O-mannosyltransferase targeting cadherins 1) | DRSC00314 | 1.70e6 | 1.80e6 | 1.11e6 | 1.27e6 | inactive
Tmtc1 (Transmembrane O-mannosyltransferase targeting cadherins 1) | DRSC00411 | 1.61e6 | 1.64e6 | 1.08e6 | 1.26e6 | inactive
Cog8 (Component of oligomeric golgi complex 8) | DRSC02961 | 1.39e6 | 1.47e6 | 1.14e6 | 1.21e6 | inactive
CG32081 | DRSC09861 | 1.84e6 | 1.69e6 | 1.49e6 | 1.58e6 | inactive
